PubChem BioAssay AID1224828, NIAID | 2016

- Screen: 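Regulators linking TLR4 signalling to p65 nuclear translocation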 (primary screen)
- Cell system: mouse RAW264.7 G9 macrophage reporter cells (GFP-p65, Tnf promoter-mCherry)
- Reagents: siRNA pool against mouse genes, 100 nM
- Time to read-out: 2 days siRNA transfection, then 40 min LPS before fixation
- Treatment: LPS (Salmonella minnesota R595) at 10 ng/ml
- Measured: 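Imaged p65 nuclear translocation ratio, normalised to the plate median, converted to robust z-scores and averaged across two replicates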
- Direction: p65 translocation robust z-score: higher = more nuclear NF-kappaB p65 after LPS than the plate median; nuclear/cytoplasmic p65 ratio: higher = more nuclear NF-kappaB p65
- Call rule: 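Called active when z exceeds 3.3 or falls under -1.56 (median of Tlr4 controls), giving activity score of at least 50; no calls for control wells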
- Calls: active = hit (p65 shift raised or lowered); inactive = no clear change
The deposit covers about 17,000 reagents; below is a part drawn at random. 762 of all reagents (4.5%) count as active. 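Active calls include both raised and lowered p65 entry, mostly lowered; wells with fewer than 50 cells lack a z-score.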 Raw values are not corrected between plates.

With knock-down of Plekha7 the results were p65 translocation robust z-score -0.32; nuclear/cytoplasmic p65 ratio, rep 1 = 1.36; nuclear/cytoplasmic p65 ratio, rep 2 = 1.46; low cell count flag enough cells to score; inactive.
With knock-down of Pgap2, the record shows p65 translocation robust z-score -2.45; nuclear/cytoplasmic p65 ratio, rep 1 = 1.22; nuclear/cytoplasmic p65 ratio, rep 2 = 1.08; low cell count flag enough cells to score; active.
Silencing of Dkk4 came out at: p65 translocation robust z-score 1.78; nuclear/cytoplasmic p65 ratio, rep 1 = 1.76; nuclear/cytoplasmic p65 ratio, rep 2 = 1.54; low cell count flag enough cells to score; inactive.
Knock-down of Spata31f3 came out at: p65 translocation robust z-score 0.24; nuclear/cytoplasmic p65 ratio, rep 1 = 1.49; nuclear/cytoplasmic p65 ratio, rep 2 = 1.53; low cell count flag enough cells to score; inactive.
Against Rrad, the entry reads p65 translocation robust z-score -0.53; nuclear/cytoplasmic p65 ratio, rep 1 = 1.41; nuclear/cytoplasmic p65 ratio, rep 2 = 1.47; low cell count flag enough cells to score; inactive.
Knock-down of Apoc4 came out at: p65 translocation robust z-score -0.97; nuclear/cytoplasmic p65 ratio, rep 1 = 1.46; nuclear/cytoplasmic p65 ratio, rep 2 = 1.48; low cell count flag enough cells to score; inactive.
Knock-down of Mgp came out at: p65 translocation robust z-score -0.35; nuclear/cytoplasmic p65 ratio, rep 1 = 1.4; nuclear/cytoplasmic p65 ratio, rep 2 = 1.3; low cell count flag enough cells to score; inactive.
Knock-down of Vma12 came out at: p65 translocation robust z-score 0.98; nuclear/cytoplasmic p65 ratio, rep 1 = 1.75; nuclear/cytoplasmic p65 ratio, rep 2 = 1.84; low cell count flag enough cells to score; inactive.
Knock-down of Rab37 resulted in: p65 translocation robust z-score -0.58; nuclear/cytoplasmic p65 ratio, rep 1 = 1.3; nuclear/cytoplasmic p65 ratio, rep 2 = 1.16; low cell count flag enough cells to score; inactive.

Records listed so far whose target name begins with P or p:
Plekha7 — p65 translocation robust z-score: -0.32; nuclear/cytoplasmic p65 ratio, rep 1: 1.36; nuclear/cytoplasmic p65 ratio, rep 2: 1.46; low cell count flag: enough cells to score; Call: inactive
Pgap2 — p65 translocation robust z-score: -2.45; nuclear/cytoplasmic p65 ratio, rep 1: 1.22; nuclear/cytoplasmic p65 ratio, rep 2: 1.08; low cell count flag: enough cells to score; Call: active

Continued.
Dnmt3b gave p65 translocation robust z-score 0.74; nuclear/cytoplasmic p65 ratio, rep 1 = 1.67; nuclear/cytoplasmic p65 ratio, rep 2 = 1.4; low cell count flag enough cells to score; inactive.
For Rspo3 the deposit lists p65 translocation robust z-score 0.23; nuclear/cytoplasmic p65 ratio, rep 1 = 1.42; nuclear/cytoplasmic p65 ratio, rep 2 = 1.19; low cell count flag enough cells to score; inactive.
For Pam16, the values are p65 translocation robust z-score 1.11; nuclear/cytoplasmic p65 ratio, rep 1 = 1.86; nuclear/cytoplasmic p65 ratio, rep 2 = 1.73; low cell count flag enough cells to score; inactive.
Sh3bp4 scored p65 translocation robust z-score 1.19; nuclear/cytoplasmic p65 ratio, rep 1 = 1.65; nuclear/cytoplasmic p65 ratio, rep 2 = 1.8; low cell count flag enough cells to score; inactive.
Nedd4 showed p65 translocation robust z-score -1.12; nuclear/cytoplasmic p65 ratio, rep 1 = 1.63; nuclear/cytoplasmic p65 ratio, rep 2 = 1.4; low cell count flag enough cells to score; inactive.
4933409K07Rik gave nuclear/cytoplasmic p65 ratio, rep 1 = 1.48; nuclear/cytoplasmic p65 ratio, rep 2 = 1.68; low cell count flag fewer than 50 cells per well; well left out of scoring; inactive.
With knock-down of Trav7d-6 the results were p65 translocation robust z-score 1.23; nuclear/cytoplasmic p65 ratio, rep 1 = 1.73; nuclear/cytoplasmic p65 ratio, rep 2 = 2.04; low cell count flag enough cells to score; inactive.
After knock-down of Cnr1, the screen gave p65 translocation robust z-score -1.56; nuclear/cytoplasmic p65 ratio, rep 1 = 1.28; nuclear/cytoplasmic p65 ratio, rep 2 = 1.21; low cell count flag enough cells to score; inactive.
Bpifb6 scored p65 translocation robust z-score 0.82; nuclear/cytoplasmic p65 ratio, rep 1 = 1.35; nuclear/cytoplasmic p65 ratio, rep 2 = 1.64; low cell count flag enough cells to score; inactive.
Fnbp1 scored p65 translocation robust z-score 0.67; nuclear/cytoplasmic p65 ratio, rep 1 = 1.78; nuclear/cytoplasmic p65 ratio, rep 2 = 1.47; low cell count flag enough cells to score; inactive.
With knock-down of Zfp101, the record shows p65 translocation robust z-score -0.02; nuclear/cytoplasmic p65 ratio, rep 1 = 1.37; nuclear/cytoplasmic p65 ratio, rep 2 = 1.25; low cell count flag enough cells to score; inactive.
Against Apc, the entry reads p65 translocation robust z-score -0.68; nuclear/cytoplasmic p65 ratio, rep 1 = 1.52; nuclear/cytoplasmic p65 ratio, rep 2 = 1.52; low cell count flag enough cells to score; inactive.
